# Data source: PubChem BioAssay AID602196 (INSERM, 2012)
# Test: 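Genes whose knock-down alters cisplatin killing of lung cancer cells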
# Cells: human A549 lung cancer cells
# Reagents: siRNA pair against human genes
# Time to read-out: 48 h transfection before cisplatin; time from cisplatin to read-out not stated
# Treatment: cisplatin at a dose killing half of control-siRNA cells; exact dose and duration not given
# Read-out: 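Cisplatin cell death as a shift from the 50% death seen with control siRNA; siRNAs toxic or growth-blocking alone scored 0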
# Scale: two-siRNA summed score (-2 to +2): higher = both siRNAs protect from cisplatin killing; -2 means both sensitise; mean protection from cisplatin (shift in death) and protection from cisplatin (shift in death), siRNA C and protection from cisplatin (shift in death), siRNA D: higher = protection from cisplatin killing
# Hit rule: 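Each siRNA scores 0 if harmful alone by LDH or WST-1, otherwise +1 if it reduces and -1 if it increases cisplatin killing; a gene is active when both siRNAs agree (sum +2 or -2)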
# Meaning of the calls: active = both siRNAs shift cisplatin killing the same way; inactive = no consistent shift, or siRNA harmful alone
# In all, the deposit lists about 23,000 reagents; below is a part drawn at random. 455 of all reagents (2%) count as active. 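Active includes both protection and sensitisation; some change values fall well beyond the stated -50 to +50 range.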 Not given: the amount of reagent.
target gene,two-siRNA summed score (-2 to +2),mean protection from cisplatin (shift in death) (%),"protection from cisplatin (shift in death), siRNA C (%)","protection from cisplatin (shift in death), siRNA D (%)",activity call
LIPF,0,-0.8,-11.7,10,inactive
CPNE2,0,12.6,24.6,0.6,inactive
CFHR5,0,-0.3,-7.4,6.8,inactive
SYT8,0,-7.3,2.4,-16.9,inactive
LOC402330,1,19.3,26.8,11.7,inactive
SLC25A6P2,0,4.3,20.6,-12,inactive
CASK,0,2.4,-1.5,6.3,inactive
SCN7A,0,-7.1,-8.4,-5.8,inactive
CEACAM21,0,2.1,0.6,3.7,inactive
MGC3196,0,13,11.4,14.6,inactive
TMX2,-1,-5.4,12.3,-23.1,inactive
TRAIP,0,-6.4,13.5,-26.4,inactive
CSNK1E,0,12.8,40.1,-14.5,inactive
RANBP1,1,14,10.6,17.4,inactive
LOC442558,0,3.6,8,-0.9,inactive
PGAM1,0,10.3,11.2,9.5,inactive
PIEZO1-AS1,-1,-13.4,-18.6,-8.2,inactive
LOC283247,0,0.5,7.8,-6.7,inactive
NUDT10,0,-0.7,5.3,-6.6,inactive
APOLTP,0,5.1,0.1,10.1,inactive
LOC440392,1,4.5,-4.8,13.8,inactive
ELOVL2,0,5.5,-14.7,25.7,inactive
TMEM59L,0,-0.5,-5.7,4.7,inactive
DTL,0,-17.2,-10,-24.4,inactive
LOC388966,0,6,6.1,5.8,inactive
LOC402579,0,15.4,10.7,20.1,inactive
GNMT,-1,-5.5,-22.9,12,inactive
LOC389473,0,22.2,14.6,29.8,inactive
PSMD6,1,18.9,21.3,16.5,inactive
AANAT,1,11.5,6.9,16.2,inactive
POLE4,0,0.7,-3.8,5.1,inactive
BBS9,0,5.1,9.2,0.9,inactive
MGC26597,1,14.8,27.8,1.8,inactive
GPR65,0,1.7,-3.5,6.9,inactive
NUP205,-1,-5.1,-16.4,6.1,inactive
LOC392533,0,2.2,9.2,-4.7,inactive
LOC440025,1,10.9,5,16.8,inactive
LOC389223,1,9.2,-2,20.4,inactive
UBE2A,0,10.1,11.4,8.9,inactive
DPM2,0,2.7,2.7,2.7,inactive
LOC122335,1,6.7,24.2,-10.9,inactive
ZNF792,0,0.5,5,-3.9,inactive
HRES1,1,10.7,4.5,17,inactive
TOX2,0,3.1,4.4,1.8,inactive
GLI4,0,10.8,26.8,-5.2,inactive
LOC203235,0,12.6,15.9,9.3,inactive
CINP,0,0.5,1.9,-0.9,inactive
HBM,0,12.3,16,8.5,inactive
INHBC,0,-8.2,-8.7,-7.7,inactive
FKBP1B,0,3.9,-12.6,20.3,inactive
LINC01446,0,3.4,5.9,1,inactive
LOC400963,0,30.1,26.1,34.2,inactive
TUBB2A,-1,-10.9,0.1,-21.8,inactive
CELF1,-1,-5.7,13,-24.5,inactive
KRT25,0,9,11.6,6.4,inactive
LOC400055,1,11.9,1.4,22.3,inactive
LOC389667,0,20.6,5.2,35.9,inactive
